Our source for the binding values is publication doi:10.1101/390104.

By UniProt entry, the sequences of proteins in these tests, tags left out. Where a name states a change or a piece, a line headed by the entry shows the natural chain unless it says otherwise.
UniProt P0AES9, whole entry, looked up, stated change not applied: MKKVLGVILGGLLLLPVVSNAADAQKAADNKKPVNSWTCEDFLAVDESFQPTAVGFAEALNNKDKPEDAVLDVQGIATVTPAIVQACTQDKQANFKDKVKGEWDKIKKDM

Assay [1] concerns the target HdeA-F28W mutant (E. coli) (UniProt P0AES9). Put plainly: SEC. A general note: In gel filtration, larger molecules generally elute earlier.
The target is the same in assay [2]. Put plainly: NMR.

No constants are given. Whether binding was seen depends on the method and setting.

Turning to “HdeA-F28W mutant (from UniProt P0AES9 22-110)”, the binding entry in assay [1] and in assay [2] was “no binding” in each case.
